# Binding screen against folded nucleic acids

Targets (5′ to 3′):
PreQ1: PreQ1 riboswitch RNA pseudoknot, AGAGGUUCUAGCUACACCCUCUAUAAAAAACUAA. From B. subtilis. About 170 hits among about 24,000 compounds.
TPP: TPP riboswitch RNA three-way junction, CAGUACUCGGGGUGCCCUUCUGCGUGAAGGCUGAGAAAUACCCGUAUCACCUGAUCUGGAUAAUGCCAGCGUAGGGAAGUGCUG. About 160 hits among about 24,000 compounds.
SAM-II: SAM-II riboswitch RNA pseudoknot, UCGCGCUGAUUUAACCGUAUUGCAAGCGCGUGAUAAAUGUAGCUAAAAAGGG. About 200 hits among about 21,000 compounds.

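Compounds were printed on reactive glass slides in duplicate spots, a dye-labelled oligonucleotide was laid over them, and the fluorescence left after washing was read. For the PreQ1, TPP and SAM-II riboswitches the laboratory earlier reported (doi:10.1038/s41467-019-09493-3) 1 µM RNA, 2 h, and a rule that included a mean Z-score above 3 (spot signal-to-noise against the whole library), a score well above that on a control array, and duplicate spots agreeing (coefficient of variation under 100). The data file gives only the calls; its cut-offs may differ, and compounds hitting several targets are kept. The calls come from the array alone, and fixing a compound to the slide can hide its binding.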
“1” means called a hit, “0” means screened and not called a hit.
This is an unselected part of the compounds tested.
A dash means that no call is listed here.

| structure | PreQ1 | TPP | SAM-II |
|---|---|---|---|
| `CC1=C(C(=O)OC(C)(C)C)C2(C(=O)Nc3ccccc32)C(C(=O)OC(C)C)=C(N)O1` (stereo unspecified) | 0 | 0 | 0 |
| `Nc1ncnc2c1c(-c1cnc3[nH]ccc3c1)nn2C1CCCC1` | 0 | 0 | 0 |
| `Nc1ccc2c(c1Cl)C(=O)c1ccccc1C2=O` | 0 | 0 | 0 |
| `CC(C)(C)NC1CCCCC1NS(=O)(=O)c1ccccc1` (stereo unspecified) | 0 | 0 | - |
| `COc1cc(NC(=O)c2ccccc2C2CCNC2)cc(-n2cnnn2)c1` (stereo unspecified) | 0 | 0 | 0 |
| `Cc1cc(C)n(CCN)c(=O)n1` | 0 | 0 | 0 |
| `O=C(c1ccc(CO)o1)N1C[C@H]2CC[C@@H]1CN(Cc1ccccc1)C2` | 0 | 0 | 0 |
| `CCCc1c(C)nc2ncnn2c1Nc1ccc(CC)cc1` | 0 | 0 | 0 |
| `Cc1cc(C(=O)NCc2cc3n(n2)CCCNC3)c(-c2ccccc2)o1` | 0 | 0 | 0 |
| `CN(C)c1nc(CNC(=O)[C@H]2CNC[C@@H](C(=O)N3CCOCC3)C2)cs1` | 0 | 0 | 0 |
| `Cc1cc(OCCCn2c(CO)nc3ccccc32)ccc1Cl` | 0 | 0 | 0 |
| `CCCCNc1nc(N(C)c2ccccc2)nc(-n2ccnc2)n1` | 0 | 0 | 0 |
| `CCCCNc1nc2c(c(=O)n(C)c(=O)n2C)n1Cc1ccc(Cl)cc1` | 0 | 0 | 0 |
| `COc1cc(OC)nc(N2CCC3(CC2)OCCCC3O)n1` (stereo unspecified) | 0 | 0 | 0 |
| `Cn1ccnc1CN(CC(O)CO)C1CC1` (stereo unspecified) | 0 | 0 | 0 |
| `Nc1nc2c(s1)C(c1cccc(F)c1)CC(=O)N2` (stereo unspecified) | 0 | 0 | 0 |
| `CC1(C)Cc2nc3sc4c(NC5CCCCC5)ncnc4c3cc2CO1` | 0 | 0 | 0 |
| `COc1ccc(OC)c(NC2=NS(=O)(=O)C(c3ccc(C(C)C)cc3)=C2C)c1` | 0 | 0 | - |
| `CCn1c2c(c(SC(N)c3cccc4ccccc34)nc1=O)CCC2` (stereo unspecified) | 0 | 0 | - |
| `Cc1ccc(C)c(OCC(O)Cn2c(C3CC(=O)N(C(C)(C)C)C3)nc3ccccc32)c1` (stereo unspecified) | 0 | 0 | - |
| `COc1ccccc1NCc1nc2ccccc2n1Cc1ccccc1` | 0 | 0 | 0 |
| `COc1cc(CC2CC(CO)=NO2)cc2c1OCO2` (stereo unspecified) | 0 | 0 | 0 |
| `CCOC(=O)C1(C)C=C(Nc2ccc(C)cc2)C(=O)N1c1ccc(C)cc1` (stereo unspecified) | 0 | 0 | 0 |
| `c1coc(CN2CCC3(CC2)NCCc2[nH]cnc23)c1` | 0 | 0 | 0 |

2 of the entries, repeated:

| structure | PreQ1 | TPP | SAM-II |
|---|---|---|---|
| `COc1cc(OC)nc(N2CCC3(CC2)OCCCC3O)n1` (stereo unspecified) | 0 | 0 | 0 |
| `Nc1ccc2c(c1Cl)C(=O)c1ccccc1C2=O` | 0 | 0 | 0 |

Source: the ROBIN nucleic acid binder screens (doi:10.1002/anie.202211358).